According to paper PMC5575518:
Results are given in words; binding and its absence hold for the method and conditions named. Binding seen in cells or lysates may run through a third protein. A yes stands for co-enrichment or nearness to the bait. Other partners may have been found. For part of these data: No binding means not detected with the bait.

By UniProt entry, the sequences of proteins in these tests, tags left out.
UniProt Q9GZV5: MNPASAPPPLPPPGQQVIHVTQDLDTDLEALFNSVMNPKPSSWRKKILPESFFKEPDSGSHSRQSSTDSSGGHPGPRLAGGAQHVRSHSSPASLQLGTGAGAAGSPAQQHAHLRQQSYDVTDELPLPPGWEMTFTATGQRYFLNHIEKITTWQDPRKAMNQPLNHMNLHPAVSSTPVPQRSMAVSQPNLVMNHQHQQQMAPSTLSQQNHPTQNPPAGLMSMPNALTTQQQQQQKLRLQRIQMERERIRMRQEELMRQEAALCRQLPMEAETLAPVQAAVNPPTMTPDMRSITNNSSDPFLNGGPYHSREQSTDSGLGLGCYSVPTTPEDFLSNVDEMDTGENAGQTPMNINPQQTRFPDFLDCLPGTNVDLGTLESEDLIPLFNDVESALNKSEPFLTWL
UniProt P46937: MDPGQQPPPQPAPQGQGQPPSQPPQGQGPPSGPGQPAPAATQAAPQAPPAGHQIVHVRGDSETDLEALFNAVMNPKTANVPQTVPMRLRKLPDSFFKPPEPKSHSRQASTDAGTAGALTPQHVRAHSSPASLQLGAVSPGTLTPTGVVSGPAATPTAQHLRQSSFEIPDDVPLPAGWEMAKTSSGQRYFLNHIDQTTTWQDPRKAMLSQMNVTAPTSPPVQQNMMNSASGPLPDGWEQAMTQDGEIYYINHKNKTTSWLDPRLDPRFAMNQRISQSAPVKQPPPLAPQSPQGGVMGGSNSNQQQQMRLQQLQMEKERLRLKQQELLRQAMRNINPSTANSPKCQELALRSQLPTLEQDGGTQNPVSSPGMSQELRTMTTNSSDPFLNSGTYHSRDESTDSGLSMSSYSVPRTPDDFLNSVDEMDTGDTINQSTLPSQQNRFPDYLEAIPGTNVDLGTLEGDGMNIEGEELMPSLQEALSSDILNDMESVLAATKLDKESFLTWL
UniProt P10085: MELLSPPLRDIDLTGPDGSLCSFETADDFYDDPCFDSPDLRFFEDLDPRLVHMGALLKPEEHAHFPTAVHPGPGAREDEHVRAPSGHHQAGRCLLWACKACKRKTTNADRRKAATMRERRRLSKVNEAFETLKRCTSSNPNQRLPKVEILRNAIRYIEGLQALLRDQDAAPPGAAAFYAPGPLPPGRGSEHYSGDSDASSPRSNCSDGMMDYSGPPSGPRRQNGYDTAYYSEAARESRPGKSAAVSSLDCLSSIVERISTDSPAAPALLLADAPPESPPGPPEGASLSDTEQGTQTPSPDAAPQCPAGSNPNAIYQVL
UniProt P30051: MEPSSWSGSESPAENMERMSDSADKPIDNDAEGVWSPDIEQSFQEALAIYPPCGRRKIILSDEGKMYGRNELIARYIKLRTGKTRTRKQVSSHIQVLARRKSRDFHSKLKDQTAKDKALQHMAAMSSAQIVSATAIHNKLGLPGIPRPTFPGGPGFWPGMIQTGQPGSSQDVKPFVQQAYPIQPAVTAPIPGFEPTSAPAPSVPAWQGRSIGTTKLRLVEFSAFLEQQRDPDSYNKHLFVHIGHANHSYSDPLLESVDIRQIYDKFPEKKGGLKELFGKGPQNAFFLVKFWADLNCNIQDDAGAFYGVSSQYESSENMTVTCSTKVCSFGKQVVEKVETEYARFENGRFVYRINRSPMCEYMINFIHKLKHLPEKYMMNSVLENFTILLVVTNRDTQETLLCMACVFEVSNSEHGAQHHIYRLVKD
UniProt P62259: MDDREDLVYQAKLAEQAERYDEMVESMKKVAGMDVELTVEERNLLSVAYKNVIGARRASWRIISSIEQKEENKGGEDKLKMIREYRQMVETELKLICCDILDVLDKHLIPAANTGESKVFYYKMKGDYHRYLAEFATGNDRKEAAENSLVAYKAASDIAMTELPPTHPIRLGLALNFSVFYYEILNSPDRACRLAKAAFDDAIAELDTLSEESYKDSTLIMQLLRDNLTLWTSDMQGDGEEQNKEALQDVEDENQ
UniProt Q9JLV1: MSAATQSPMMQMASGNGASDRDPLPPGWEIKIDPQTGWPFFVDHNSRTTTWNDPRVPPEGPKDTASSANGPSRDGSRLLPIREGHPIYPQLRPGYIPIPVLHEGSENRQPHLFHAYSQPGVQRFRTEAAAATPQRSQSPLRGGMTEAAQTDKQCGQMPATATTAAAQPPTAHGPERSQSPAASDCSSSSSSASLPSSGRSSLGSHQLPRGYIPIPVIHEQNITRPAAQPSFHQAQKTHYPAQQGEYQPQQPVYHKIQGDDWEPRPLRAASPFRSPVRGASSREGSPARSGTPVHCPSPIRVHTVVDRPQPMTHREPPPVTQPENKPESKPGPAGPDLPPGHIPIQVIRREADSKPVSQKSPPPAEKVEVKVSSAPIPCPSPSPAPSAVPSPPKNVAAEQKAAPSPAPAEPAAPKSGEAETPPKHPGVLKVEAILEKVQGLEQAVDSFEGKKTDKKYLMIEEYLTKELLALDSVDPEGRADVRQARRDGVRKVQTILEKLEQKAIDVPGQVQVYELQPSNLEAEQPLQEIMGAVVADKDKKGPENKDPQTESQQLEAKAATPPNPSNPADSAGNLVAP
UniProt P63101: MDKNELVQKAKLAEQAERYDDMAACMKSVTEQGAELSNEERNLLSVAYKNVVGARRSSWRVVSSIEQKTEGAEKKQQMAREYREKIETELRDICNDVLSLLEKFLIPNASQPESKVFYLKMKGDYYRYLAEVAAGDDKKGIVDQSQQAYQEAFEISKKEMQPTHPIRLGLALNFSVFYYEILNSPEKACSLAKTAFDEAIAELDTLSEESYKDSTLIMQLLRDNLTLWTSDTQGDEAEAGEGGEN
UniProt Q03347: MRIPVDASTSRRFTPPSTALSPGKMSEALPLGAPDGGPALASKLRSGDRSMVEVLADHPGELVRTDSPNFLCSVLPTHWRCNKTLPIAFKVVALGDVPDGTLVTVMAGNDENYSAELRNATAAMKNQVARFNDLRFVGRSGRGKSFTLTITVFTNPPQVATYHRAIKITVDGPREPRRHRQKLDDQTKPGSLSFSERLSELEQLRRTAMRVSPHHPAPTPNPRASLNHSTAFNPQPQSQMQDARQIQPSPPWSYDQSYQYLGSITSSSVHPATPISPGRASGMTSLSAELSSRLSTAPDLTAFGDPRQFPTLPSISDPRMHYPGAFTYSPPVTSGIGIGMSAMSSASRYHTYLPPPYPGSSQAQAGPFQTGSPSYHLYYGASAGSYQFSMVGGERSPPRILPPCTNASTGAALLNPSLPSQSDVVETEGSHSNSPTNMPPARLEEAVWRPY

Legend:
[1] = biological target: flag-tagged wild-type human TAZ (pMSCV-3xFlag TAZ-IRES-eGFP) (human) (UniProt Q9GZV5); experiment: affinity purification with mass spectrometry; flag-tagged human TAZ or YAP expressed by retrovirus in proliferating C2C12 myoblasts (50% cell density); lysis in 150 mM NaCl, 20 mM Tris-HCl pH 7.5, 1% Triton X100; anti-Flag M2 agarose beads, 4°C; cut-off ratio ≥2 against empty vector and p < .05
[2] = biological target: flag-tagged wild-type human YAP (human) (UniProt P46937); experiment: as above
[3] = biological target: flag-tagged wild-type human TAZ (pMSCV-3xFlag TAZ-IRES-eGFP) (human) (UniProt Q9GZV5); experiment: affinity purification with mass spectrometry; flag-tagged human TAZ or YAP expressed by retrovirus in C2C12 mature myotubes (differentiated for 72 hours); lysis in 150 mM NaCl, 20 mM Tris-HCl pH 7.5, 1% Triton X100; anti-Flag M2 agarose beads, 4°C; cut-off ratio ≥2 against empty vector and p < .05
[4] = biological target: flag-tagged wild-type human YAP (human) (UniProt P46937); experiment: as above
[5] = biological target: flag-tagged wild-type human TAZ (pMSCV-3xFlag TAZ-IRES-eGFP) (human) (UniProt Q9GZV5); experiment: affinity purification with mass spectrometry; same Flag immunoprecipitation and mass spectrometry from C2C12 myoblasts/myotubes; the text does not tell in which of the two states the hit was found
[6] = biological target: flag-tagged wild-type human YAP (human) (UniProt P46937); experiment: as above

| Molecule | binding [3] | binding [5] | also measured |
| --- | --- | --- | --- |
| MyoD (from UniProt P10085 1-318) | no binding | – | binding [1]: no binding; binding [2]: no binding; binding [4]: no binding |
| Tead1 (from UniProt P30051 1-426) | – | binds | – |
| Ywhae (from UniProt P62259 1-255) | – | binds | – |
| Bag3 (from UniProt Q9JLV1 1-577) | binds | – | binding [4]: binds |
| Ywhaz (from UniProt P63101 1-245) | – | binds | – |
| Runx1 (from UniProt Q03347 1-451) | – | – | binding [1]: binds |
| Amotl1 (protein, UniProt Q9D4H4 1-968) MRRAKSRRGPCEPVLRAPPPICYSPSSPVQILEDPAYFYPDLQLYSGRHEASTLTVEASGGLRGKSVEDPLSSFHSPNFLRTPEVEMRGSEDVASGRVLQRLIQEQLRYGTPTENMNLLAIQHQATGSAGPAHATTNFSSTETLTQEDPQMVYQSARQEPQGQEHQGDNTVMEKQVRSTQPQQNNEELPTYEEAKAQSQFFRGQQQQQQQQQQQQQQQQQQGQGPLSHTYYMAGGTSQKSRTEGRPTVNRANSGQAHKDEALKELKQGHVRSLSERIMQLSLERNGAKQHLPSSGNGKSFKAGGEPSPAQPVCKALDPRGPPPEYPFKTKPMKSPVSKNQDHGLYYNDQHPGVLHEMVKPYPAPQPARTEVAVLRYQPPPEYGVTSRPCQLPFPSTVQQHSPMSSQTSSIGGTLHSVSLPLPLPISLAASQPLPASPNQQLGPDAFAIVERAQQMVEILTEENRVLHQELQGCYDNADKLHKFEKELQSISEAYESLVKSTTKRESLDKAMRTKLEGEIRRLHDFNRDLRDRLETANRQLSSREYDGHEDKAAESHYVSQNKEFLKEKEKLEMELAAVRTASEDHRRHIEILDQALSNAQARVIKLEEELREKQAYVEKVEKLQQALTQLQSACEKRGQMERRLRTWLERELDALRTQQKHGTGPPVSLPECNAPALMELVREKEERILALEADMTKWEQKYLEESTIRHFAMSAAAAATAERDTTISNHSRNGSYGESSLEAHIWPEEEEVVQANRRCQDMEYTIKNLHAKIIEKDAMIKVLQQRSRKDAGKTDSASLRPARSVPSIAAATGTHSRQTSLTSSQLTEEKKEEKTTWKGSIGFLLGKEHQGQASAPLLPTTPASALSLPASTTSASSTHAKTGSKDSSTQTDKSTELFWPSMASLPSRGRLSTAPSNSPILKHPAAKGAVEKQENSPGHGKASEHRGRVSNLLHKPEFPDGEMMEVLI | – | binds | binding [6]: binds |
| Ywhag (protein, UniProt P61982 1-247) MVDREQLVQKARLAEQAERYDDMAAAMKNVTELNEPLSNEERNLLSVAYKNVVGARRSSWRVISSIEQKTSADGNEKKIEMVRAYREKIEKELEAVCQDVLSLLDNYLIKNCSETQYESKVFYLKMKGDYYRYLAEVATGEKRATVVESSEKAYSEAHEISKEHMQPTHPIRLGLALNYSVFYYEIQNAPEQACHLAKTAFDDAIAELDTLNEDSYKDSTLIMQLLRDNLTLWTSDQQDDDGGEGNN | – | binds | binding [6]: binds |
| Dvl2 (protein, UniProt Q60838 1-736) MAGSSAGGGGVGETKVIYHLDEEETPYLVKIPVPAERITLGDFKSVLQRPAGAKYFFKSMDQDFGVVKEEISDDNARLPCFNGRVVSWLVSSDTPQPEVAPPAHESRTELVPPPPPLPPLPPERTSGIGDSRPPSFHPNVSSSHENLEPETETESVVSLRRDRPRRRDSSEHGAGGHRPGGPSRLERHLAGYESSSTLMTSELESTSLGDSDEDDTMSRFSSSTEQSSASRLLKRHRRRRKQRPPRMERTSSFSSVTDSTMSLNIITVTLNMEKYNFLGISIVGQSNERGDGGIYIGSIMKGGAVAADGRIEPGDMLLQVNDMNFENMSNDDAVRVLRDIVHKPGPIVLTVAKCWDPSPQAYFTLPRNEPIQPIDPAAWVSHSAALTGAFPAYPGSSSMSTITSGSSLPDGCEGRGLSVHMDMASVTKAMAAPESGLEVRDRMWLKITIPNAFLGSDVVDWLYHHVEGFPERREARKYASGLLKAGLIRHTVNKITFSEQCYYVFGDLSGGCESYLVNLSLNDNDGSSGASDQDTLAPLPGATPWPLLPTFSYQYPAPHPYSPQPPPYHELSSYTYGGGSASSQHSEGSRSSGSTRSDGGAGRTGRPEERAPESKSGSGSESELSSRGGSLRRGGEPGGTGDGGPPPSRGSTGAPPNLRALPGLHPYGAPSGMALPYNPMMVVMMPPPPPPVSTAVQPPGAPPVRDLGSVPPELTASRQSFHMAMGNPSEFFVDVM | no binding | – | binding [4]: binds |
| Unc45a (protein, UniProt Q99KD5 1-944) MTVSGPETPEPRPSDPGASSAEQLRKEGNELFKCGDYEGALTAYTQALSLGATPQDQAILHRNRAACHLKLEDYSKAESEASKAIEKDGGDVKALYRRSQALEKLGRLDQAVLDLKRCVSLEPKNKVFQESLRNIGGQIQEKVRYMSSTDAKVEQMFQILLDPKEKGTEKKQKASQNLVVLAREDAGAEKIFRSNGVQLLQRLLDTEETDLMLAALRTLVGICSEHQSRTVATLSVLGTRRVVSILGVENQAVSLAACHLLQVIFDALKEGVKKGFRGKEGAIIVDPARELKVLINSLLELLTEVGVSGQGRDNALTLLIKMVPRKSPKDPNNSLTLWVIDQGLKKILEVGGSLQDAAGELTVTANSRMSASILLSKLFDDLKCDAERENFHRLCENYIRNWFEGHGLAGKLRAIQTVSCLLQGPCDAGNRALELSGVMESVIALCASEREEEQLVAVEALIHAAGKAKRASFITANGVSLLKDLYKGSERDSIRIRALVGLCKLGSAGGTDFSMKQFAEGSTLKLAKQCRKWLCNDQIDAGTRRWAVEGLAYLTFDADVKEEFVEDEAALKALFQLSRSEERSVLFAVGSALVNCTNSYDYEEPDPKMVELAKYAKQHVPEQHPKDKPSFVRARVKKLLAAGVVSAMTCMVKTESPVLTNSCRELLSRVFLALVEEVEDRGTVVAQGGGKALLPLALEGTDVGQTKAAQALAKLTITSNPEMTFPGERIYEVVRPLVSLLHLSCSGLQNFEALMALTNLAGISERLRQKILKEKAVPMIEGYMFEEHEMIRRAATECMCNLAMSKEVQDLFEAQGNDRLKLLVLYSGEDDELLRRAAAGGLAMLTSMRPALCSRIPQVTTHWLEILQALLLSPNQELQHRGTVVVLNMMQSSKEIAGTLMESEVLEILSVLAKGEESPVTRAAAACLEKAVEYRLIQPNQDGE | binds | – | – |
| Dvl3 (protein, UniProt Q61062 1-716) MGETKIIYHLDGQETPYLVKLPLPAERVTLADFKGVLQRPSYKFFFKSMDDDFGVVKEEISDDNAKLPCFNGRVVSWLVSAEGSHPEPAPFCADNPSELPPSMERTGGIGDSRPPSFHPHASGGSQENLDNDTETDSLVSAQRERPRRRDGPEHAARLNGTTKGERRREPGGYDSSSTLMSSELETTSFFDSDEDDSTSRFSSSTEQSSASRLMRRHKRRRRKQKVSRIERSSSFSSITDSTMSLNIITVTLNMEKYNFLGISIVGQSNERGDGGIYIGSIMKGGAVAADGRIEPGDMLLQVNEINFENMSNDDAVRVLREIVHKPGPITLTVAKCWDPSPRGCFTLPRSEPIRPIDPAAWVSHTAAMTGTFPAYGMSPSLSTITSTSSSITSSIPDTERLDDFHLSIHSDMAAIVKAMASPESGLEVRDRMWLKITIPNAFIGSDVVDWLYHNVEGFTDRREARKYASNLLKAGFIRHTVNKITFSEQCYYIFGDLCGNMANLSLHDHDGSSGASDQDTLAPLPHPGAAPWPMAFPYQYPPPPHPYNPHPGFPELGYSYGGGSASSQHSEGSRSSGSNRSGSDRRKEKDPKAGDSKSGGSGSESDHTTRSSLRGPRERAPSERSGPAASEHSHRSHHSLTSSLRSHHTHPSYGPPGVPPLYGPPMLMMTPPPAAMGPPGAPPGRDLASVPPELTASRQSFRMAMGNPSEFFVDVM | no binding | – | – |
